Source: patent US20210228734A1, “CONJUGATES COMPRISING A TEMPERATURE-RESPONSIVE POLYMER AND A LIGAND CAPABLE OF BINDING ERGOSTEROL” (L V PRASAD EYE INSTITUTE, priority 2018, published 2021)
In brackets after ≈: the same amount, converted by molar mass.

What was measured:
[1] = test system: C. albicans ATCC90028; test: Minimal inhibitory concentration (MIC), C. albicans ATCC90028; type: cell-based; conditions: Candida albicans; C. albicans ATCC90028, 16 hours, no visible growth; Table 3a; read-out: MIC against ATCC90028
Description: (§1) C. albicans cells, laboratory strain SC5314 or ATCC90028, were cultured on solid BHI (Oxoid) medium at 37° C. for 24 hours and stored at 4° C. for up to one month. Prior to experiments, a colony of C. albicans was sub-cultured into liquid BHI medium overnight at 37° C.
(§2) C. albicans cells, laboratory strain SC5314 or ATCC90028, were cultured on solid BHI (Oxoid) medium at 37° C. for 24 hours and stored at 4° C. for up to one month. Prior to experiments, a colony of C. albicans was sub-cultured into liquid BHI medium overnight at 37° C. Overnight cultures of C. albicans were adjusted to an optical density at 600 nm of 0.1 and incubated with Amphotericin polymers, which were serially diluted 1:2 from 2500-2.44 μg/ml, for 16 hours in a 96 well plate. The concentration of polymer at which there was no visible growth was determined to be the MIC. C. albicans (Robin) ATCC200955, C. tropicalis ATCC200956, A. flavus ATCC16883 and F. keratoplasticum ATCC36031 were similarly cultured on solid Sabrauds (Oxoid) medium at 37° C. for 24 hours and stored at 4° C. for up to one month. Prior to experiments, colonies were sub-cultured into liquid Sabrauds medium overnight at 37° C. All liquid cultures were static apart from A. flavus which was incubated shaking at 100 rpm.

[2] = test system: C. albicans SC5314; test: Minimal inhibitory concentration (MIC), C. albicans SC5314; type: cell-based; conditions: Candida albicans; C. albicans SC5314, 16 hours, no visible growth; Table 3a; read-out: MIC against SC5314
Description: as §1, §2

C[C@@H]1[C@H](O)[C@@H](C)/C=C/C=C/C=C/C=C/C=C/C=C/C=C/[C@H](O[C@@H]2O[C@H](C)[C@@H](O)[C@H](N)[C@@H]2O)C[C@@H]2O[C@](O)(C[C@@H](O)C[C@@H](O)[C@H](O)CC[C@@H](O)C[C@@H](O)CC(=O)O[C@H]1C)C[C@H](O)[C@H]2C(=O)O [Amp-B, amphotericin B]
MIC [1]: 4 µg/mL (≈ 4.33 µM) | MIC [2]: 0.4 µg/mL (≈ 0.433 µM)
